For two molecules, binding results are on record in PMC10065446.

Protein sequences, listed by entry. Tags and fused reporters are not part of them.
UniProt P17931: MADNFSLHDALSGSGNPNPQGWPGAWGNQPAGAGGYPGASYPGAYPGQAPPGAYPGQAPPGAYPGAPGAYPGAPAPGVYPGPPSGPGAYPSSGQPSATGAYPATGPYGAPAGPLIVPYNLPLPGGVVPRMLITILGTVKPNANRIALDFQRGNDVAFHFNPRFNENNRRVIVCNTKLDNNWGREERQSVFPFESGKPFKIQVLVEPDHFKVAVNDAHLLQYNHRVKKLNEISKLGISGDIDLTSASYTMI

For assay [1], the target named is human galectin-3, C-terminally HA-tagged (full-length form) (human) (UniProt P17931). Nature of the assay: co-IP; HEK293T ADAM10/17-/- cells transfected with galectin-3 (C-terminal HA) and meprin α or meprin β alone; lysis in 50 mM tris-HCl pH 7.4, 120 mM NaCl, 0.5% NP-40; IP with anti-HA-tag antibody on Protein G Dynabeads; Western blot. A general note: A western blot detects proteins with antibodies after separation by electrophoresis.

The target is the same in assay [2]. Nature of the assay: co-IP; fig. S5B: catalytically inactive meprin β–E153A with galectin-3 in transfected cells; legend and set-up not shown.

These are yes or no findings as the source states them, for the method shown. Binding seen in cells or lysates may run through a third protein. Some entries that bind do so weakly or less than the wild type.

B1: human meprin β (enzyme, UniProt Q16820 62-701)
chain: NSIIGEKYRWPHTIPYVLEDSLEMNAKGVILNAFERYRLKTCIDFKPWAGETNYISVFKGSGCWSSVGNRRVGKQELSIGANCDRIATVQHEFLHALGFWHEQSRSDRDDYVRIMWDRILSGREHNFNTYSDDISDSLNVPYDYTSVMHYSKTAFQNGTEPTIVTRISDFEDVIGQRMDFSDSDLLKLNQLYNCSSSLSFMDSCSFELENVCGMIQSSGDNADWQRVSQVPRGPESDHSNMGQCQGSGFFMHFDSSSVNVGATAVLESRTLYPKRGFQCLQFYLYNSGSESDQLNIYIREYSADNVDGNLTLVEEIKEIPTGSWQLYHVTLKVTKKFRVVFEGRKGSGASLGGLSIDDINLSETRCPHHIWHIRNFTQFIGSPNGTLYSPPFYSSKGYAFQIYLNLAHVTNAGIYFHLISGANDDQLQWPCPWQQATMTLLDQNPDIRQRMSNQRSITTDPFMTTDNGNYFWDRPSKVGTVALFSNGTQFRRGGGYGTSAFITHERLKSRDFIKGDDVYILLTVEDISHLNSTQIQLTPAPSVQDLCSKTTCKNDGVCTVRDGKAECRCQSGEDWWYMGERCEKRGSTRDTIVIAVSSTVAVFALMLIITLVSVYCTRKKYRERMSSNRPNLTPQNQHAF
As for B1, the binding entry in assay [1] is recorded as “binds”.

B2: human meprin β–E153A (catalytically inactive variant) (enzyme, UniProt Q16820 62-701)
chain: NSIIGEKYRWPHTIPYVLEDSLEMNAKGVILNAFERYRLKTCIDFKPWAGETNYISVFKGSGCWSSVGNRRVGKQELSIGANCDRIATVQHAFLHALGFWHEQSRSDRDDYVRIMWDRILSGREHNFNTYSDDISDSLNVPYDYTSVMHYSKTAFQNGTEPTIVTRISDFEDVIGQRMDFSDSDLLKLNQLYNCSSSLSFMDSCSFELENVCGMIQSSGDNADWQRVSQVPRGPESDHSNMGQCQGSGFFMHFDSSSVNVGATAVLESRTLYPKRGFQCLQFYLYNSGSESDQLNIYIREYSADNVDGNLTLVEEIKEIPTGSWQLYHVTLKVTKKFRVVFEGRKGSGASLGGLSIDDINLSETRCPHHIWHIRNFTQFIGSPNGTLYSPPFYSSKGYAFQIYLNLAHVTNAGIYFHLISGANDDQLQWPCPWQQATMTLLDQNPDIRQRMSNQRSITTDPFMTTDNGNYFWDRPSKVGTVALFSNGTQFRRGGGYGTSAFITHERLKSRDFIKGDDVYILLTVEDISHLNSTQIQLTPAPSVQDLCSKTTCKNDGVCTVRDGKAECRCQSGEDWWYMGERCEKRGSTRDTIVIAVSSTVAVFALMLIITLVSVYCTRKKYRERMSSNRPNLTPQNQHAF
For B2, in assay [2], the binding entry is recorded as “binds”.
